Measured values published in PubChem BioAssay AID504842 (National Center for Advancing Translational Sciences (NCATS), 2011).
Out of some 330,000 compounds screened, about 100 (0.03%) were called active. Inconclusive means that the source gave no clear call. Such entries were picked first, then a sample of the others. Calls come from the whole dose curve; as a rule, active = well fitted inhibition curve with a large enough effect; inconclusive = small, poorly fitted or top-dose-only effect; inactive = flat fitted curve, though single readings scatter. A potency beside an inconclusive call is a rough fit, not a confirmed value.

These molecules were tested on Chaperonin Mm-Cpn (Methanococcus maripaludis) (assay: Inhibitors of TCP-1 ring complex (TRiC) of Methanococcus maripaludis (MmCpn): qHTS). Settings: purified Mm-Cpn ATPase, ADP Transcreener TR-FRET; series mostly up to 76.9 µM.
Procedure, shortened: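 Purified archaeal chaperonin (25 nM final) was preincubated with compound for 10 min at 37°C, then ATP (10 uM final) was added for 30 min at 37°C in Tris pH 7.4/KCl/MgCl2/DTT buffer. ADP was quantified by HTRF Transcreener TR-FRET.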
Note: nearly all actives have a fitted effect of over 80% in size.
Potency is the fitted concentration of half-maximal effect.
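Throughout, for potency: enzyme at 25 nM with ATP substrate at 10 µM during the reaction.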

SMILES | Potency
O=C(CSc1nc2ccccc2nc1SCC(=O)N1CCCCC1)N1CCCCC1 | inconclusive: 70.8 µM [inhibitor, partial curve, poor fit]
COc1ccc2c(c1)CCCC2NS(=O)(=O)OCC(Cl)(Cl)Cl (stereo not given) | inactive
Cc1ccc(S(=O)(=O)CCc2nnc(NC(=O)COc3cccc(C)c3)s2)cc1 | inconclusive: 100 µM [inhibitor, single point]
CSc1nc(N)nc(C2CC2)n1 | inconclusive: 112 µM [inhibitor, single point]
CC1C=CC(C)C(C(=O)O)C1C(=O)O (stereo not given) | inconclusive: 56.2 µM [inhibitor, single point]
O=C(COc1cccc(Cl)c1)Nc1nc(-c2ccc(S(=O)(=O)N3CCOCC3)cc2)cs1 | active: 39.8 µM
CC(=O)Nc1ccc(S(=O)(=O)NC2(C(F)(F)F)N=C(c3ccccc3)NC2=O)cc1 (stereo not given) | inactive
O=C(Cc1cccc2ccccc12)NC(NC(=S)Nc1ccccc1Cl)C(Cl)(Cl)Cl (stereo not given) | inactive
Cc1ccc(S(=O)(=O)n2nc(OC(=O)c3c(-c4ccccc4Cl)noc3C)cc2N)cc1 | inactive
O=C(/C=C/c1cccnc1)c1cccc(O)c1 | inconclusive: 63.1 µM [inhibitor, single point]
CCOC(=O)C1CCCN(C(=O)CNC(=O)c2nn(-c3ccc(OC)c(Cl)c3)c(=O)c3ccccc23)C1 (stereo not given) | inconclusive: 28.2 µM [inhibitor, single point]
O=C(Nc1ccc(Cl)cc1)C(Cl)C(=O)c1ccccc1 (stereo not given) | inactive
COc1ccc(S(=O)(=O)N2CCCCCC2)cc1C(=O)NCCc1ccccc1 | inconclusive: 22.4 µM [inhibitor, single point]
COc1ccc(C2CC(c3ccccc3)=NN2C(=S)Nc2ccccc2)cc1 (stereo not given) | active: 50.1 µM
COc1ccc(OC)c(/C=C/C(=O)OCC(=O)Nc2cccc(Oc3ccccc3)c2)c1 | inconclusive: 17.8 µM [inhibitor, single point]
COc1ccc(CNC(=O)c2c([S-])n(-c3ccc(C)cc3)c3cccc[n+]23)cc1 | inconclusive: 100 µM [inhibitor, single point]
O=C(N/C(=C/c1ccc(Br)cc1)C(=O)N1CCCCC1)c1ccccc1F | inconclusive: 70.8 µM [inhibitor, single point]
O=c1oc2ccccc2c2c1C1O[C@](c3ccsc3)(Cc3c1ccc1ccccc31)O2 | inconclusive: 20 µM [inhibitor, single point]
Cc1ccc(NS(=O)(=O)c2cc(C(=O)N3CCCC3)ccc2C)cc1C | inconclusive: 100 µM [inhibitor, partial curve, poor fit]
Cc1ccc(Cl)c(OCCCN(C)Cc2ccccc2)c1 | inactive
Cc1cc(S(=O)(=O)Nc2nc(CN3CCOCC3)nc3sc4c(c23)CCC4)cc(C)c1C | inactive
COc1ccccc1CNC(=O)CN1c2cccc3cccc(c23)S1(=O)=O | inactive
CCc1ccc(NC(=O)N2CCCCCC2)cc1 | inactive

Some of the entries so far, as tab-separated lines:
SMILES	Potency
O=C(Cc1cccc2ccccc12)NC(NC(=S)Nc1ccccc1Cl)C(Cl)(Cl)Cl (stereo not given)	inactive
O=c1oc2ccccc2c2c1C1O[C@](c3ccsc3)(Cc3c1ccc1ccccc31)O2	inconclusive: 20 µM [inhibitor, single point]

(continued)

SMILES | Potency
Clc1cccc(NCc2nnc(SCc3ccc(Cl)cc3Cl)o2)c1 | inactive
O=C(NCc1cccc(C(F)(F)F)c1)C1CC(c2ccc(C(F)(F)F)cc2)=NO1 (stereo not given) | inconclusive: 8.91 µM [inhibitor, single point]
COc1nc(-c2ccc(Cl)cc2Cl)nc2ccccc12 | inconclusive: 28.2 µM [inhibitor, single point]
COc1ccccc1NS(=O)(=O)c1cc(NC(=O)C2CC2)ccc1N1CCOCC1 | inactive
COc1ccc(CN2C(=O)c3ccccc3C(/C=N/OCc3ccc(Cl)cc3)C2=O)cc1 (stereo not given) | inconclusive: 10 µM [inhibitor, single point]
COC(=O)c1sc(-c2cccs2)cc1NC(=O)/C=C/C(=O)O | inconclusive: 31.6 µM [inhibitor, partial curve, poor fit]
Cc1ccc(CNC(=O)CS(=O)Cc2nc(-c3cccs3)oc2C)cc1 (stereo not given) | inactive
Cc1ccc(NC(=O)COc2ccc(/C=C3/NC(=O)NC3=O)cc2)cc1 | inconclusive: 89.1 µM [inhibitor, single point]
COc1cccc(CNC(=O)Cc2ccc(-c3ccccc3)cc2)c1 | inactive
O=C(NCC1CCCO1)C1CCCN1C(=O)Nc1ccccc1[N+](=O)[O-] (stereo not given) | inconclusive: 14.1 µM [inhibitor, single point]
Cc1ccc(NC(=O)C/C(N)=N/OC(=O)Nc2cccc(Cl)c2)cc1 | inconclusive: 14.1 µM [inhibitor, single point]
O=S(=O)(c1cc(-c2nnc(-c3ccc(Br)cc3)o2)ccc1Br)N1CCCCCC1 | inconclusive: 100 µM [inhibitor, single point]
Cc1cc(NC(=O)c2cccc(S(=O)(=O)N3CCCCCC3)c2)no1 | inconclusive: 224 µM [inhibitor, partial curve, poor fit]
CCc1ccc(-c2cc(C)no2)cc1S(=O)(=O)N1CCN(c2ccc(C(C)=O)cc2)CC1 | inconclusive: 89.1 µM [inhibitor, single point]
CCN1C(=O)[C@H]2[C@@H](c3ccc(-c4cccc(Cl)c4)c(OC)c3)N[C@@](Cc3ccccc3)(C(=O)OC)[C@H]2C1=O | inactive
O=C1NC(=O)/C(=C/c2cccc3ccccc23)S1 | inactive
Cc1sc(NC(=O)CSc2nnc3scc(-c4ccccc4)n23)c(C#N)c1C | inconclusive: 22.4 µM [inhibitor, single point]
CSCCC(NS(=O)(=O)c1ccccc1F)C(=O)NCc1cccnc1 (stereo not given) | inconclusive: 50.1 µM [inhibitor, single point]
CCN(CC)S(=O)(=O)c1ccc2oc(SCC(=O)NC3CC3)nc2c1 | inactive
Cc1cccc(Nc2nc(-c3c(C)nc4ccccn34)cs2)c1 | inconclusive: 10 µM [inhibitor, single point]
COc1cccc(NC(=O)CSc2nn3c(=O)c(C)nnc3s2)c1 | inconclusive: 15.8 µM [inhibitor, single point]
COc1ccc(C(=O)c2c(O)cc(-c3ccc(OC)cc3)oc2=O)cc1 | inconclusive: 10 µM [inhibitor, single point]
